{"source": "PubChem BioAssay AID652259 – Drosophila RNAi Screening Center | 2013", "aim": "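Genome-wide hunt for genes that control Wingless pathway activity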 (primary screen)", "cells": "Drosophila clone 8 imaginal disc epithelial cells", "reagent": "long dsRNA against Drosophila genes", "conditions": "pathway stimulated by co-transfected Wingless expression plasmid", "read-out": "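Firefly luciferase from a tcf-site Wingless reporter, measured alongside co-transfected Renilla luciferase that tracks transfection; pathway stimulated by a Wingless plasmid; the firefly-to-Renilla ratio is not deposited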", "reading the numbers": "firefly reporter light: higher = more Wg reporter light, before normalisation; Renilla control light: higher = more transfected or surviving cells", "hit rule": "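Strong candidates differ from their plate mean by at least two out of four per-plate statistical tests; weak candidates meet just one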", "meaning of the calls": "active = candidate regulator (raises or lowers reporter); inactive = not a candidate", "note": "The screen tested about 22,000 reagents; shown is an unselected part of those with a known target gene and a result. Of all reagents, 233 (1.1%) got an active call. 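Light values are raw, unnormalised plate reads; the ratio scores behind the reporter calls were not deposited.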 A number with no mark means an inactive call. Names joined by + are all predicted targets of the reagent. No sequences are given here. The record does not give: the amount of reagent, the time to read-out, the dose of the treatment."}
{"Target gene": "CG4374", "dsRNA": "DRSC15570", "firefly reporter light, replicate 1": 24621, "Renilla control light, replicate 1": 20544}
{"Target gene": "CG1622", "dsRNA": "DRSC19745", "firefly reporter light, replicate 1": 3232, "firefly reporter light, replicate 2": 7881, "Renilla control light, replicate 1": 873, "Renilla control light, replicate 2": 2036}
{"Target gene": "MED27", "dsRNA": "DRSC12205", "firefly reporter light, replicate 1": 11746, "Renilla control light, replicate 1": 2020}
{"Target gene": "Ugt302C1", "dsRNA": "DRSC15353", "firefly reporter light, replicate 1": 6506, "Renilla control light, replicate 1": 2256}
{"Target gene": "CG32820 + CG17450 + CG32819", "dsRNA": "DRSC21803", "firefly reporter light, replicate 1": 5.77e5, "firefly reporter light, replicate 2": 7.26e5, "Renilla control light, replicate 1": 3.69e5, "Renilla control light, replicate 2": 2.64e5}
{"Target gene": "CG32820 + CG17450 + CG32819", "dsRNA": "DRSC22812", "firefly reporter light, replicate 1": 7.53e5, "firefly reporter light, replicate 2": 8.87e5, "Renilla control light, replicate 1": 3.65e5, "Renilla control light, replicate 2": 5.01e5}
{"Target gene": "RpL10Aa", "dsRNA": "DRSC15518", "firefly reporter light, replicate 1": 10512, "Renilla control light, replicate 1": 1808}
{"Target gene": "CG31266", "dsRNA": "DRSC15747", "firefly reporter light, replicate 1": 15190, "Renilla control light, replicate 1": 3625}

Laid out differently: entries from further up.
Target gene	dsRNA	reporter change call, replicate 1	firefly reporter light, replicate 1	firefly reporter light, replicate 2	Renilla control light, replicate 1	Renilla control light, replicate 2
CG32820 + CG17450 + CG32819	DRSC21803		5.77e5	7.26e5	3.69e5	2.64e5
CG32820 + CG17450 + CG32819	DRSC22812		7.53e5	8.87e5	3.65e5	5.01e5
RpL10Aa	DRSC15518		10512		1808	
CG31266	DRSC15747		15190		3625	

The results go on.
{"Target gene": "CG12279", "dsRNA": "DRSC14495", "firefly reporter light, replicate 1": 24317, "Renilla control light, replicate 1": 5645}
{"Target gene": "CG11267", "dsRNA": "DRSC09833", "firefly reporter light, replicate 1": 9233, "Renilla control light, replicate 1": 4448}
{"Target gene": "CG11380", "dsRNA": "DRSC18632", "reporter change call, replicate 1": "Wg reporter activity raised (active)", "firefly reporter light, replicate 1": 22215, "Renilla control light, replicate 1": 5931}
{"Target gene": "CG8138", "dsRNA": "DRSC16386", "firefly reporter light, replicate 1": 12640, "Renilla control light, replicate 1": 2048}
{"Target gene": "CG42518 + MED9", "dsRNA": "DRSC06917", "firefly reporter light, replicate 1": 17547, "Renilla control light, replicate 1": 5320}
{"Target gene": "sm", "dsRNA": "DRSC05795", "firefly reporter light, replicate 1": 20042, "Renilla control light, replicate 1": 10299}
{"Target gene": "sm", "dsRNA": "DRSC07686", "firefly reporter light, replicate 1": 7275, "Renilla control light, replicate 1": 3046}
{"Target gene": "CG12231", "dsRNA": "DRSC19445", "firefly reporter light, replicate 1": 14185, "Renilla control light, replicate 1": 8388}
{"Target gene": "intr", "dsRNA": "DRSC14528", "firefly reporter light, replicate 1": 3227, "firefly reporter light, replicate 2": 8365, "Renilla control light, replicate 1": 1033, "Renilla control light, replicate 2": 2468}
{"Target gene": "Crz", "dsRNA": "DRSC16615", "firefly reporter light, replicate 1": 19619, "Renilla control light, replicate 1": 3681}
{"Target gene": "CG13566", "dsRNA": "DRSC04203", "firefly reporter light, replicate 1": 1808, "firefly reporter light, replicate 2": 5156, "Renilla control light, replicate 1": 562, "Renilla control light, replicate 2": 1734}
{"Target gene": "Rcc1", "dsRNA": "DRSC09684", "firefly reporter light, replicate 1": 8688, "Renilla control light, replicate 1": 3050}
{"Target gene": "Mtr3", "dsRNA": "DRSC10953", "firefly reporter light, replicate 1": 15638, "Renilla control light, replicate 1": 4589}
{"Target gene": "Hexo1", "dsRNA": "DRSC08663", "firefly reporter light, replicate 1": 8858, "Renilla control light, replicate 1": 3697}
{"Target gene": "CG7322", "dsRNA": "DRSC20036", "firefly reporter light, replicate 1": 17037, "Renilla control light, replicate 1": 8817}
{"Target gene": "CG42241 (retired record)", "dsRNA": "DRSC04007", "firefly reporter light, replicate 1": 16612, "Renilla control light, replicate 1": 8064}
{"Target gene": "eIF4B", "dsRNA": "DRSC20983", "firefly reporter light, replicate 1": 21304, "Renilla control light, replicate 1": 11634}
